Source: patent US20160115217A1
No constants are given. Whether binding was seen depends on the method and setting. In cells and extracts the contact can be indirect. Some entries that bind do so weakly or less than the wild type.

Chains of the proteins cited; added tags and fusions are not shown.
UniProt P31266: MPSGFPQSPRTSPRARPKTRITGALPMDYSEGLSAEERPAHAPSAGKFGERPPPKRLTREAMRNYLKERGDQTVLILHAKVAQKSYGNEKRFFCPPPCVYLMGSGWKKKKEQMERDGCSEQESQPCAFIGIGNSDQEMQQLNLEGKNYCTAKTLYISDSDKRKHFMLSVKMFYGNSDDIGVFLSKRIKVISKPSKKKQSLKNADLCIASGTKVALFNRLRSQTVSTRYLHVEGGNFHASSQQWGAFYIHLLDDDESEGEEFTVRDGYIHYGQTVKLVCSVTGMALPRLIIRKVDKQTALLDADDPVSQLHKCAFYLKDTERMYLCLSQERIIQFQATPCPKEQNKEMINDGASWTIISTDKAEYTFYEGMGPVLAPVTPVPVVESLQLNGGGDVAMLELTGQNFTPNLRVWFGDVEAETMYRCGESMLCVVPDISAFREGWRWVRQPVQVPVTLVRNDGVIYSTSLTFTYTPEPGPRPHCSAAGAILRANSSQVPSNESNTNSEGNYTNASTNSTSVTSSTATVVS
UniProt Q9R1E0: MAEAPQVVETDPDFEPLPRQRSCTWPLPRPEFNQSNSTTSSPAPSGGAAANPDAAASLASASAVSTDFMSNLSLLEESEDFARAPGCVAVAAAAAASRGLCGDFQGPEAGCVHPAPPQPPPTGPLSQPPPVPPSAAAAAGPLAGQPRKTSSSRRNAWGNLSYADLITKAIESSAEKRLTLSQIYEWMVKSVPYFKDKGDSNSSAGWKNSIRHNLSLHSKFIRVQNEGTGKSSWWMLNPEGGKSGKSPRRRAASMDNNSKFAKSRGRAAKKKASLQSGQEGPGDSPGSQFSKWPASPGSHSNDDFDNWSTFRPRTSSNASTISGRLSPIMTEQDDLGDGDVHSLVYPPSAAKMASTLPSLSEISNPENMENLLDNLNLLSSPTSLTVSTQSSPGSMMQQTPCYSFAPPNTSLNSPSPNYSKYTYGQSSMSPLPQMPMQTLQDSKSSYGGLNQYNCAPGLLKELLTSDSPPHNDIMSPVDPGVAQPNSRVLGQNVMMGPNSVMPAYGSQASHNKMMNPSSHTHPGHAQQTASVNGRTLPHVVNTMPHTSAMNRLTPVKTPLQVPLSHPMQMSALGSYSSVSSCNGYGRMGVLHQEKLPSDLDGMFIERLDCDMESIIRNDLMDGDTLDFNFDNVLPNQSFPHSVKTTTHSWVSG

Legend:
[1] = target: endogenous Cs1 (CSL; C2C12 cells) (UniProt P31266); assay: co-immunoprecipitation
[2] = target: endogenous Cs1 (CSL; C2C12 cells) (UniProt P31266); assay: co-immunoprecipitation from co-cultured C2C12 cells
[3] = target: endogenous Cs1 (CSL; C2C12 cells) (UniProt P31266); assay: co-immunoprecipitation from C2C12 cells co-cultured with Jagged1- or LacZ-expressing HEK293 cells

Measured: binding

endogenous Foxo1 (C2C12 cells) (from UniProt Q9R1E0 1-652)
binds: all assays above
